Experimental data taken from publication doi:10.1101/2022.05.16.492168.
Results are given in words; binding and its absence hold for the method and conditions named. Some entries that bind do so weakly or less than the wild type. Where a sequence is shown, tags or fusion partners need not be part of it.

T1: DBD-RVE8 (RVE8 in yeast 2-/3-hybrid) (Arabidopsis thaliana) (UniProt Q8RWU3)
T1 sequence: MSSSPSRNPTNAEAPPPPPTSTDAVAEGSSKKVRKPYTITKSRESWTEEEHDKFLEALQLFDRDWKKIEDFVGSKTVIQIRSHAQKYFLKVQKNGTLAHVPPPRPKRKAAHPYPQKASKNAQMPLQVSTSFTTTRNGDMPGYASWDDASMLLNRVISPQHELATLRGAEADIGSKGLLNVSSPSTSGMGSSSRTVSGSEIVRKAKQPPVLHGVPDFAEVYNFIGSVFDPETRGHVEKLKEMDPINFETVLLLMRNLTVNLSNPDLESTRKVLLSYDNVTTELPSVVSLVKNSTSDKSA

T2: AD-LNK1 C-term (Arabidopsis thaliana) (UniProt A8MQN2)
T2 sequence: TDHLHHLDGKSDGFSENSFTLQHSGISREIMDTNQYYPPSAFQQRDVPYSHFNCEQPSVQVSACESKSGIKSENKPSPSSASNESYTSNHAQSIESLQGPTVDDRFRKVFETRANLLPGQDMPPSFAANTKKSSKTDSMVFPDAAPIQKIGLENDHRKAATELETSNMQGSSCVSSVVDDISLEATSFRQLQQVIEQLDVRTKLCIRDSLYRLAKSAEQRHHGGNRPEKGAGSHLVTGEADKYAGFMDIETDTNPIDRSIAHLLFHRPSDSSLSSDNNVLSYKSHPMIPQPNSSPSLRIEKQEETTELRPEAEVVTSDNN

B1: AD-LNK1 C-term (domain or fragment, UniProt A8MQN2 297-616)
chain: T2 sequence
B2: COR28 in yeast 2-/3-hybrid (protein, UniProt Q8L983 1-218)
chain: MENDCTVNIVSLEKDRDVSEASAESQSESTLSNSLDSGVTAETSRSDADSKLDECTAWTNEKHNSYLDYLESSFVRQLYSLLGGGTQRLSRTRDVQSNSHKSADQFTVLQNGCWQKVNFGKKQSCLETSSEFRFHRNSLRNKPENSNGNYTMGTTVQGDVLCHDETKHSEASGQNFREEEEEEEKGEVSKKREREANNDDSSLKEDQVVPVRMVKPRT

Key:
[1] = molecular target: T1, DBD-RVE8 (RVE8 in yeast 2-/3-hybrid) (Arabidopsis thaliana); assay: two-hybrid
[2] = molecular target: T2, AD-LNK1 C-term (Arabidopsis thaliana); assay: two-hybrid

Binder	binding [1]	binding [2]
B1	binds	–
B2	–	no binding
